The values below come from article PMC8320060.

By UniProt entry, the sequences of proteins in these tests, tags left out.
UniProt P60953: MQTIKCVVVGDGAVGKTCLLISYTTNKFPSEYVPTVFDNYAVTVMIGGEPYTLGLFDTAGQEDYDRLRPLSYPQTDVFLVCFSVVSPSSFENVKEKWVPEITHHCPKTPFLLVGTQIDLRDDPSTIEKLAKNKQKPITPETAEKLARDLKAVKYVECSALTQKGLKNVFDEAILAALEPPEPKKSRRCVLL
UniProt P61586: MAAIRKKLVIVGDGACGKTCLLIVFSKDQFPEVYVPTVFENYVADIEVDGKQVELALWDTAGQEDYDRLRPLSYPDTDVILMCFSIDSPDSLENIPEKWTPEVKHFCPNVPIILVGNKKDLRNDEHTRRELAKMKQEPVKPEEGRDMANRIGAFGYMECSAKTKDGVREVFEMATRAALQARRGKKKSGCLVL

Test [1] concerns the target T1, RHOGDIA-FLAG (from pcDNA3.1-RHOGDIA) (UniProt P52565).
T1 sequence: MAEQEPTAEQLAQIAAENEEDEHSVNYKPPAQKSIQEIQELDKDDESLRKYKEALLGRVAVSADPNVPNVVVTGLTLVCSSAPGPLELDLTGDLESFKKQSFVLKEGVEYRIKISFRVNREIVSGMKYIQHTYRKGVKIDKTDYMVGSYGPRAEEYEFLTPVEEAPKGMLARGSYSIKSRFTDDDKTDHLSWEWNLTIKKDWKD
The test is described as follows: co-IP; A549 and Calu-1 cells co-transfected with HHEX siRNA (or control) and pcDNA3.1-RHOGDIA; lysate immunoprecipitated with anti-FLAG antibody; western blot. A general note: A western blot detects proteins with antibodies after separation by electrophoresis.

For test [2], the target named is T2, Hhex-HA (human hematopoietically expressed homeobox, from pcDNA3.1-HHEX-HA) (human) (UniProt Q03014).
T2 sequence: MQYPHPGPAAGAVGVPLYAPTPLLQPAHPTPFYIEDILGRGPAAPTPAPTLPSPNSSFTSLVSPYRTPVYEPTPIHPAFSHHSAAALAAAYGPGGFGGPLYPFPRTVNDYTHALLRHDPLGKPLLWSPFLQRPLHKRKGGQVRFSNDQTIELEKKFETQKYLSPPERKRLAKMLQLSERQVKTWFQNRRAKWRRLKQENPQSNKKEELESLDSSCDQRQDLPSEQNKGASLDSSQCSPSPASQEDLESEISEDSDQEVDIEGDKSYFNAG
The test is described as follows: co-IP; 293FT cells co-transfected with pcDNA3.1-HHEX-HA and pcDNA3.1-RHOA-MYC or pcDNA3.1-CDC42-MYC; lysate immunoprecipitated with anti-HA or anti-MYC antibody; western blot.

Test [3] has as its target T2, Hhex-HA (human hematopoietically expressed homeobox, from pcDNA3.1-HHEX-HA) (human). The test is described as follows: co-IP; HEK 293T cells co-transfected with pcDNA3.1-HHEX-HA, pcDNA3.1-RHOGDIA-FLAG and pcDNA3.1-RHOA-MYC or pcDNA3.1-CDC42-MYC; lysate immunoprecipitated with anti-HA antibody; western blot.

Results are given in words; binding and its absence hold for the method and conditions named. In cells and extracts the contact can be indirect. Some binding calls cover weakened binding; strength is not graded here. Tags and fused reporters may be left off the sequences shown.

As for “CDC42, endogenous in A549 and Calu-1 cells (from UniProt P60953 1-191)”, the binding entry in test [1] was “binds”.

Regarding “CDC42-MYC (from pcDNA3.1-CDC42-MYC) (from UniProt P60953 1-191)”, the binding entry in test [2] and in test [3] was “binds” throughout.

Turning to “RHOA, endogenous in A549 and Calu-1 cells (from UniProt P61586 1-193)”, in test [1], the binding result is listed as “binds”.

Consider “RHOA-MYC (from pcDNA3.1-RHOA-MYC) (from UniProt P61586 1-193)”, for which the binding result in test [2] and in test [3] was “binds” throughout.
